# These are yes or no findings as the source states them, for the method shown. In cells and extracts the contact can be indirect. Some entries that bind do so weakly or less than the wild type. For some assays here: Sequences can lack the tags named with a protein.
# Chains of the proteins cited; added tags and fusions are not shown.
# UniProt Q7Z434: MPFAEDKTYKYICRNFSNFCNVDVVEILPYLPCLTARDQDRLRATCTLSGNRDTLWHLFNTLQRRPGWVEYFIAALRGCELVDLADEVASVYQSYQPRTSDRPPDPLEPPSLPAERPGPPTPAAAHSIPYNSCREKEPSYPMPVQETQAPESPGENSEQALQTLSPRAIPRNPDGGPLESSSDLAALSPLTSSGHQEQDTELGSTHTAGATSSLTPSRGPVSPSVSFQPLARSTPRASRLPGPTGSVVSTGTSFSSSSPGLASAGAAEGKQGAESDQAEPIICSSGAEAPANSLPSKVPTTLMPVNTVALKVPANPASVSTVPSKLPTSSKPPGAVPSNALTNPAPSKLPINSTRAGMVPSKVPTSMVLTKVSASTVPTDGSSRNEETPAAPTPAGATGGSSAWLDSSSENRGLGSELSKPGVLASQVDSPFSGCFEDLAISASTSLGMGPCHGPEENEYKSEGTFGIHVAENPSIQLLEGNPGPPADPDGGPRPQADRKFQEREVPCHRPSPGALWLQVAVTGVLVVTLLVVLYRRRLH
# T1: Flag-IRF3 (UniProt Q14653)
# T1 sequence: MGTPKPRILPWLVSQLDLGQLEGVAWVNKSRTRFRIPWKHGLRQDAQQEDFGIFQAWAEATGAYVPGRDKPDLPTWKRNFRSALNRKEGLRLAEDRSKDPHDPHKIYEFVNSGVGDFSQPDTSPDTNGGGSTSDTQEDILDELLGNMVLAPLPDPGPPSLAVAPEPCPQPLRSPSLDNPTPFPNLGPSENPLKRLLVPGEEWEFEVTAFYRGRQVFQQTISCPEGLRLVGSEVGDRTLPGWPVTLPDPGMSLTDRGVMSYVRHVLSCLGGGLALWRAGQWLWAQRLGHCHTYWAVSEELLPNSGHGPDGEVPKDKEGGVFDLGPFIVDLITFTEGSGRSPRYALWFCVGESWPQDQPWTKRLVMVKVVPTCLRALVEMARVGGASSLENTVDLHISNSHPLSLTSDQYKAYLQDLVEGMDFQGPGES
# T2: endogenous IRF3 (HEK293T cells) (human (endogenous in HEK293T)) (UniProt Q14653)
# T2 sequence: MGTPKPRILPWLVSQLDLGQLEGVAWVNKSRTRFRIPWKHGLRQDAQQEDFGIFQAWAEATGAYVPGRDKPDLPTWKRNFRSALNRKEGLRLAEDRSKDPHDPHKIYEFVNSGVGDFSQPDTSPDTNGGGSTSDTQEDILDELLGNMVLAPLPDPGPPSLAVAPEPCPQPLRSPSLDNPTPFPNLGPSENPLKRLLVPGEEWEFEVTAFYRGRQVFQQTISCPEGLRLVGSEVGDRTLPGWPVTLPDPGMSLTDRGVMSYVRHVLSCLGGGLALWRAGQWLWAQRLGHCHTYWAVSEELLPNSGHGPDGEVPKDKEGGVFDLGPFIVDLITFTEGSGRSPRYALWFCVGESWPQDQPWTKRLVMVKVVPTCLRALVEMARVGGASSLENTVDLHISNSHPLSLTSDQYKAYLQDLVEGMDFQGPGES
# What was measured:
# Assay in all cases: co-IP
# Flag-MAVS = Flag-MAVS (UniProt Q7Z434)
# Flag-IRF3 = biological target: T1, Flag-IRF3
# [1] = biological target: T2, endogenous IRF3 (HEK293T cells) (human (endogenous in HEK293T))
Binder,binding (Flag-IRF3),binding [1],further results
"HA-MDA5 (protein, UniProt Q9BYX4 1-1025) MSNGYSTDENFRYLISCFRARVKMYIQVEPVLDYLTFLPAEVKEQIQRTVATSGNMQAVELLLSTLEKGVWHLGWTREFVEALRRTGSPLAARYMNPELTDLPSPSFENAHDEYLQLLNLLQPTLVDKLLVRDVLDKCMEEELLTIEDRNRIAAAENNGNESGVRELLKRIVQKENWFSAFLNVLRQTGNNELVQELTGSDCSESNAEIENLSQVDGPQVEEQLLSTTVQPNLEKEVWGMENNSSESSFADSSVVSESDTSLAEGSVSCLDESLGHNSNMGSDSGTMGSDSDEENVAARASPEPELQLRPYQMEVAQPALEGKNIIICLPTGSGKTRVAVYIAKDHLDKKKKASEPGKVIVLVNKVLLVEQLFRKEFQPFLKKWYRVIGLSGDTQLKISFPEVVKSCDIIISTAQILENSLLNLENGEDAGVQLSDFSLIIIDECHHTNKEAVYNNIMRHYLMQKLKNNRLKKENKPVIPLPQILGLTASPGVGGATKQAKAEEHILKLCANLDAFTIKTVKENLDQLKNQIQEPCKKFAIADATREDPFKEKLLEIMTRIQTYCQMSPMSDFGTQPYEQWAIQMEKKAAKEGNRKERVCAEHLRKYNEALQINDTIRMIDAYTHLETFYNEEKDKKFAVIEDDSDEGGDDEYCDGDEDEDDLKKPLKLDETDRFLMTLFFENNKMLKRLAENPEYENEKLTKLRNTIMEQYTRTEESARGIIFTKTRQSAYALSQWITENEKFAEVGVKAHHLIGAGHSSEFKPMTQNEQKEVISKFRTGKINLLIATTVAEEGLDIKECNIVIRYGLVTNEIAMVQARGRARADESTYVLVAHSGSGVIEHETVNDFREKMMYKAIHCVQNMKPEEYAHKILELQMQSIMEKKMKTKRNIAKHYKNNPSLITFLCKNCSVLACSGEDIHVIEKMHHVNMTPEFKELYIVRENKALQKKCADYQINGEIICKCGQAWGTMMVHKGLDLPCLKIRNFVVVFKNNSTKKQYKKWVELPITFPNLDYSECCLFSDED",,,binding (Flag-MAVS): binds
"HA-TBK1 (enzyme, UniProt Q9UHD2 1-729) MQSTSNHLWLLSDILGQGATANVFRGRHKKTGDLFAIKVFNNISFLRPVDVQMREFEVLKKLNHKNIVKLFAIEEETTTRHKVLIMEFCPCGSLYTVLEEPSNAYGLPESEFLIVLRDVVGGMNHLRENGIVHRDIKPGNIMRVIGEDGQSVYKLTDFGAARELEDDEQFVSLYGTEEYLHPDMYERAVLRKDHQKKYGATVDLWSIGVTFYHAATGSLPFRPFEGPRRNKEVMYKIITGKPSGAISGVQKAENGPIDWSGDMPVSCSLSRGLQVLLTPVLANILEADQEKCWGFDQFFAETSDILHRMVIHVFSLQQMTAHKIYIHSYNTATIFHELVYKQTKIISSNQELIYEGRRLVLEPGRLAQHFPKTTEENPIFVVSREPLNTIGLIYEKISLPKVHPRYDLDGDASMAKAITGVVCYACRIASTLLLYQELMRKGIRWLIELIKDDYNETVHKKTEVVITLDFCIRNIEKTVKVYEKLMKINLEAAELGEISDIHTKLLRLSSSQGTIETSLQDIDSRLSPGGSLADAWAHQEGTHPKDRNVEKLQVLLNCMTEIYYQFKKDKAERRLAYNEEQIHKFDKQKLYYHATKAMTHFTDECVKKYEAFLNKSEEWIRKMLHLRKQLLSLTNQCFDIEEEVSKYQEYTNELQETLPQKMFTASSGIKHTMTPIYPSSNTLVEMTLGMKKLKEEMEGVVKELAENNHILERFGSLTMDGGLRNVDCL",binds,,
"HA-IKKε (enzyme, UniProt Q14164 1-716) MQSTANYLWHTDDLLGQGATASVYKARNKKSGELVAVKVFNTTSYLRPREVQVREFEVLRKLNHQNIVKLFAVEETGGSRQKVLVMEYCSSGSLLSVLESPENAFGLPEDEFLVVLRCVVAGMNHLRENGIVHRDIKPGNIMRLVGEEGQSIYKLTDFGAARELDDDEKFVSVYGTEEYLHPDMYERAVLRKPQQKAFGVTVDLWSIGVTLYHAATGSLPFIPFGGPRRNKEIMYRITTEKPAGAIAGAQRRENGPLEWSYTLPITCQLSLGLQSQLVPILANILEVEQAKCWGFDQFFAETSDILQRVVVHVFSLSQAVLHHIYIHAHNTIAIFQEAVHKQTSVAPRHQEYLFEGHLCVLEPSVSAQHIAHTTASSPLTLFSTAIPKGLAFRDPALDVPKFVPKVDLQADYNTAKGVLGAGYQALRLARALLDGQELMFRGLHWVMEVLQATCRRTLEVARTSLLYLSSSLGTERFSSVAGTPEIQELKAAAELRSRLRTLAEVLSRCSQNITETQESLSSLNRELVKSRDQVHEDRSIQQIQCCLDKMNFIYKQFKKSRMRPGLGYNEEQIHKLDKVNFSHLAKRLLQVFQEECVQKYQASLVTHGKRMRVVHETRNHLRLVGCSVAACNTEAQGVQESLSKLLEELSHQLLQDRAKGAQASPPPIAPYPSPTRKDLLLHMQELCEGMKLLASDLLDNNRIIERLNRVPAPPDV",binds,,
"endogenous TBK1 (HEK293T cells) (enzyme, UniProt Q9UHD2 1-729) MQSTSNHLWLLSDILGQGATANVFRGRHKKTGDLFAIKVFNNISFLRPVDVQMREFEVLKKLNHKNIVKLFAIEEETTTRHKVLIMEFCPCGSLYTVLEEPSNAYGLPESEFLIVLRDVVGGMNHLRENGIVHRDIKPGNIMRVIGEDGQSVYKLTDFGAARELEDDEQFVSLYGTEEYLHPDMYERAVLRKDHQKKYGATVDLWSIGVTFYHAATGSLPFRPFEGPRRNKEVMYKIITGKPSGAISGVQKAENGPIDWSGDMPVSCSLSRGLQVLLTPVLANILEADQEKCWGFDQFFAETSDILHRMVIHVFSLQQMTAHKIYIHSYNTATIFHELVYKQTKIISSNQELIYEGRRLVLEPGRLAQHFPKTTEENPIFVVSREPLNTIGLIYEKISLPKVHPRYDLDGDASMAKAITGVVCYACRIASTLLLYQELMRKGIRWLIELIKDDYNETVHKKTEVVITLDFCIRNIEKTVKVYEKLMKINLEAAELGEISDIHTKLLRLSSSQGTIETSLQDIDSRLSPGGSLADAWAHQEGTHPKDRNVEKLQVLLNCMTEIYYQFKKDKAERRLAYNEEQIHKFDKQKLYYHATKAMTHFTDECVKKYEAFLNKSEEWIRKMLHLRKQLLSLTNQCFDIEEEVSKYQEYTNELQETLPQKMFTASSGIKHTMTPIYPSSNTLVEMTLGMKKLKEEMEGVVKELAENNHILERFGSLTMDGGLRNVDCL",,binds,
"endogenous IKKε (HEK293T cells) (enzyme, UniProt Q14164 1-716) MQSTANYLWHTDDLLGQGATASVYKARNKKSGELVAVKVFNTTSYLRPREVQVREFEVLRKLNHQNIVKLFAVEETGGSRQKVLVMEYCSSGSLLSVLESPENAFGLPEDEFLVVLRCVVAGMNHLRENGIVHRDIKPGNIMRLVGEEGQSIYKLTDFGAARELDDDEKFVSVYGTEEYLHPDMYERAVLRKPQQKAFGVTVDLWSIGVTLYHAATGSLPFIPFGGPRRNKEIMYRITTEKPAGAIAGAQRRENGPLEWSYTLPITCQLSLGLQSQLVPILANILEVEQAKCWGFDQFFAETSDILQRVVVHVFSLSQAVLHHIYIHAHNTIAIFQEAVHKQTSVAPRHQEYLFEGHLCVLEPSVSAQHIAHTTASSPLTLFSTAIPKGLAFRDPALDVPKFVPKVDLQADYNTAKGVLGAGYQALRLARALLDGQELMFRGLHWVMEVLQATCRRTLEVARTSLLYLSSSLGTERFSSVAGTPEIQELKAAAELRSRLRTLAEVLSRCSQNITETQESLSSLNRELVKSRDQVHEDRSIQQIQCCLDKMNFIYKQFKKSRMRPGLGYNEEQIHKLDKVNFSHLAKRLLQVFQEECVQKYQASLVTHGKRMRVVHETRNHLRLVGCSVAACNTEAQGVQESLSKLLEELSHQLLQDRAKGAQASPPPIAPYPSPTRKDLLLHMQELCEGMKLLASDLLDNNRIIERLNRVPAPPDV",,binds,
